Results taken from publication PMC6381116.
These are yes or no findings as the source states them, for the method shown. In cells and extracts the contact can be indirect. Where a sequence is shown, tags or fusion partners need not be part of it. One block for each binder: values may come before it.

What was measured:
[1] = target: T1, HA:AGO10 (Arabidopsis thaliana) (UniProt Q9XGW1); experiment: co-IP; transient co-expression in N. benthamiana in the presence of PRMT5 (Supplementary Fig. 11a, 11c; Fig. 4b)
T1 sequence: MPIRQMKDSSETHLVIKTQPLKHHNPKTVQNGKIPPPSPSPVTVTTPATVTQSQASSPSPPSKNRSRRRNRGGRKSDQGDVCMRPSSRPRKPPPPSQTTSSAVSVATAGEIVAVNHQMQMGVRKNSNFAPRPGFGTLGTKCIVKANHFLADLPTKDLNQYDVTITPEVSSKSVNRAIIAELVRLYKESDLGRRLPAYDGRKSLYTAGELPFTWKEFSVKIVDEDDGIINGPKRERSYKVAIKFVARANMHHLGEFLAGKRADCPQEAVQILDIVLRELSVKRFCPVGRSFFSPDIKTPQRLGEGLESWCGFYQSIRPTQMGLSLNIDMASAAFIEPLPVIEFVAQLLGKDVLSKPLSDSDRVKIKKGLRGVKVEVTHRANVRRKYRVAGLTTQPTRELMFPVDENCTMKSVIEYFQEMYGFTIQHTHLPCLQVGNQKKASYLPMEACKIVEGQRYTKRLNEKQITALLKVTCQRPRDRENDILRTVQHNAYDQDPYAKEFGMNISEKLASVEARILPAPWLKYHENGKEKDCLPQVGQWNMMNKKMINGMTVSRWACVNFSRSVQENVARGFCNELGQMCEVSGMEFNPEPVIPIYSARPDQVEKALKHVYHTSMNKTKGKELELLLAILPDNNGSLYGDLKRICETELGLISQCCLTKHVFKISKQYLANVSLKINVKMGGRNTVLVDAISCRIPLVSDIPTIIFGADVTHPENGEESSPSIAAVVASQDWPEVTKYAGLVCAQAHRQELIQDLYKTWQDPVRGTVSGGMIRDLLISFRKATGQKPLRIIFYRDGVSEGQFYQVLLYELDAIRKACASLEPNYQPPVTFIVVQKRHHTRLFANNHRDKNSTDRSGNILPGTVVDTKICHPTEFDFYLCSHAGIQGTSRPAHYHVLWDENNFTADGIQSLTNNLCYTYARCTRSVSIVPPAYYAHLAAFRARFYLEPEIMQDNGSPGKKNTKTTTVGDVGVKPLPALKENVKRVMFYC

[2] = target: T2, HA:Δ170AGO2 (Arabidopsis thaliana) (UniProt Q9SHF3); experiment: as above
T2 sequence: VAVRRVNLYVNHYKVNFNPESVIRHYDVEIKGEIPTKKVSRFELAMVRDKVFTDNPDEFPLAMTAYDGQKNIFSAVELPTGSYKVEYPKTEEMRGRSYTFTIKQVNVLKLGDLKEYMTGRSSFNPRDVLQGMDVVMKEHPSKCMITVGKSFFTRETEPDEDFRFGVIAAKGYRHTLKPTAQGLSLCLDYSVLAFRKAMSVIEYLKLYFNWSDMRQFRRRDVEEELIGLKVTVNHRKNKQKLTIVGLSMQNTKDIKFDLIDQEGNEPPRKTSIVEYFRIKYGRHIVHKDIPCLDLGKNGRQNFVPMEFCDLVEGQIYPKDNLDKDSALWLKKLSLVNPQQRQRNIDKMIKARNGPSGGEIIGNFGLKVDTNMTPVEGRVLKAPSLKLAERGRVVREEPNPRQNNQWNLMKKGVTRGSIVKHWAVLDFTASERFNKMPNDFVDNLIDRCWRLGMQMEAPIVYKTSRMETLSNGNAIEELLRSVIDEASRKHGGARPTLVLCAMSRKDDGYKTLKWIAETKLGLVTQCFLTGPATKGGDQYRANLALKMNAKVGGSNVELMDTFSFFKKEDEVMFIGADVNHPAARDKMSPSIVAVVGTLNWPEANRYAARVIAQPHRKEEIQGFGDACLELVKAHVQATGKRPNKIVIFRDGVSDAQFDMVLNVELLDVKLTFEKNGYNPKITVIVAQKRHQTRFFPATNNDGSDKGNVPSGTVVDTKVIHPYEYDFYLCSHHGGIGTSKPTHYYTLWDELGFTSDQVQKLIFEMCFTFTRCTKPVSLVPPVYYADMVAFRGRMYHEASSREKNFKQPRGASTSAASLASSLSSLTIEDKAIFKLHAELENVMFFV

binding [1]: no binding
binding [2]: no binding
B1: c-Myc-tagged TSN1 (protein, UniProt Q8VZG7 1-991)
chain: MATGAENQWLKGRVKAVTSGDCLVITALSHNRAGPPPEKTITFSSLMAPKMARRGGIDEPFAWESKEFLRKLCIGKEVAFKVDYKVEAIAGREFGSVFLGNENLAKLVVKTGWAKVREPGQQNQDKVSPYIKELLQLEELAKQEGYGRWSKVPGAAEASIRNLPPSAIGDSAGFDAMGLLAANKGKPMEGIVEQVRDGSTIRVYLLPEFQFVQVFVAGVQAPSMGRRTTNGSVVETVPDEPNGDVSAESRGPLTTAQRLAASAASSVEVSSDPFATEAKYFTEHRVLSRDVRIVLEGVDKFNNLIGSVHYSDGETVKDLGLELVENGLAKFVEWSANMMEEEAKKKLKAAELQCKKDKVKMWANYVPPATNSKAIHDQNFTGKVVEVVSGDCLIVADDAVPFGSPAAERRVCLSSIRSPKMGNPRREEKPAPYAREAREFLRQRLIGKQVIVQMEYSRKVTQGDGPTTSGAADRFMDFGSVFLPSAAKADSDEVTAPPAAAIAGSQPVGVNIAELVLVRGFGNVVRHRDFEERSNHYDALLAAEARALAGKKGIHSAKESPAMHITDLTVSAAKKAKDFLPSLQRIRRIPAVVEYVLSGHRFKLYIPKITCSIAFSFSGVRCPGRGEPYSEEAISVMRRRIMQRDVEIEVETVDRTGTFLGSMWESRTNVATVLLEAGLAKMQTSFGADRIAEAHLLEQAERSAKNQKLKIWENYVEGEEVSNGNTNTVETRQKETLKVVVTEVLGGGRFYVQSAGDQKIASIQNQLASLSIKDAPIIGSFNPKRGDIVLAQFSLDNSWNRAMIVTAPRAAVQSPDEKFEVFYIDYGNQETVPYSAIRPIDPSVSAAPGLAQLCRLAYIKVPSLEDDFGPEAGEYLHTVTLGSGKEFKAVIEERDTSGGKVKGQGTGTEFVVTLIAVDDEISVNAAMLQEGIARMEKRQKWGHKGKQAALDALEKFQEEARKSRIGIWQYGDIESDDEDTGPARKPAGGRR

binding [1]: no binding
binding [2]: no binding
B2: c-Myc-tagged TSN2 (protein, UniProt Q9FLT0 1-985)
chain: MATGAATENQWLKGRVKAVTSGDCLVITALTHNRAGPPPEKTITLSSLMAPKMARRGGIDEPFAWESREFLRKLCIGKEVAFKVDYKVEAIAGREFGSVYLGNENLAKLVVQNGWAKVRRPGQQNQDKVSPYIAELEQLEEQAQQEGFGRWSKVPGAAEASIRNLPPSAVGDSGNFDAMGLLAASKGKPMEGIVEQVRDGSTIRVYLLPEFQFVQVFVAGLQAPSMGRRQSTQEAVVDPDVTATSNGDASAETRGPLTTAQRLAASAASSVEVSSDPFAMEAKYFTELRVLNRDVRIVLEGVDKFNNLIGSVYYSDGDTVKDLGLELVENGLAKYVEWSANMLDEEAKKKLKATELQCKKNRVKMWANYVPPASNSKAIHDQNFTGKVVEVVSGDCLVVADDSIPFGSPMAERRVCLSSIRSPKMGNPRREEKPAPYAREAKEFLRQKLIGMEVIVQMEYSRKISPGDGVTTSGAGDRVMDFGSVFLPSPTKGDTAVAAAATPGANIAELIISRGLGTVVRHRDFEERSNHYDALLAAEARAIAGKKNIHSAKDSPALHIADLTVASAKKAKDFLPSLQRINQISAVVEYVLSGHRFKLYIPKESCSIAFAFSGVRCPGRGEPYSEEAIALMRRKIMQRDVEIVVENVDRTGTFLGSMWEKNSKTNAGTYLLEAGLAKMQTGFGADRIPEAHILEMAERSAKNQKLKIWENYVEGEEVVNGSSKVETRQKETLKVVVTEVLGGGRFYVQTVGDQKVASIQNQLAALSLKDAPIIGSFNPKKGDIVLAQFSLDNSWNRAMIVNGPRGAVQSPEEEFEVFYIDYGNQEIVPYSAIRPVDPSVSSAPGLAQLCRLAYIKVPGKEEDFGRDAGEYLHTVTLESGKEFRAVVEERDTSGGKVKGQGTGTELVVTLIAVDDEISVNAAMLQEGIARMEKRRRWEPKDKQAALDALEKFQDEARKSRTGIWEYGDIQSDDEDNVPVRKPGRG
